# According to paper PMC7864056, “Functional and structural characterization of allosteric activation of phospholipase Cε by Rap1A” (The Journal of Biological Chemistry, 2020):
# The chains behind the UniProt entries cited, without tags or fusion partners. Where a name states a change or a piece, a line headed by the entry shows the natural chain unless it says otherwise. Residues count along the entry.
# UniProt Q99P84: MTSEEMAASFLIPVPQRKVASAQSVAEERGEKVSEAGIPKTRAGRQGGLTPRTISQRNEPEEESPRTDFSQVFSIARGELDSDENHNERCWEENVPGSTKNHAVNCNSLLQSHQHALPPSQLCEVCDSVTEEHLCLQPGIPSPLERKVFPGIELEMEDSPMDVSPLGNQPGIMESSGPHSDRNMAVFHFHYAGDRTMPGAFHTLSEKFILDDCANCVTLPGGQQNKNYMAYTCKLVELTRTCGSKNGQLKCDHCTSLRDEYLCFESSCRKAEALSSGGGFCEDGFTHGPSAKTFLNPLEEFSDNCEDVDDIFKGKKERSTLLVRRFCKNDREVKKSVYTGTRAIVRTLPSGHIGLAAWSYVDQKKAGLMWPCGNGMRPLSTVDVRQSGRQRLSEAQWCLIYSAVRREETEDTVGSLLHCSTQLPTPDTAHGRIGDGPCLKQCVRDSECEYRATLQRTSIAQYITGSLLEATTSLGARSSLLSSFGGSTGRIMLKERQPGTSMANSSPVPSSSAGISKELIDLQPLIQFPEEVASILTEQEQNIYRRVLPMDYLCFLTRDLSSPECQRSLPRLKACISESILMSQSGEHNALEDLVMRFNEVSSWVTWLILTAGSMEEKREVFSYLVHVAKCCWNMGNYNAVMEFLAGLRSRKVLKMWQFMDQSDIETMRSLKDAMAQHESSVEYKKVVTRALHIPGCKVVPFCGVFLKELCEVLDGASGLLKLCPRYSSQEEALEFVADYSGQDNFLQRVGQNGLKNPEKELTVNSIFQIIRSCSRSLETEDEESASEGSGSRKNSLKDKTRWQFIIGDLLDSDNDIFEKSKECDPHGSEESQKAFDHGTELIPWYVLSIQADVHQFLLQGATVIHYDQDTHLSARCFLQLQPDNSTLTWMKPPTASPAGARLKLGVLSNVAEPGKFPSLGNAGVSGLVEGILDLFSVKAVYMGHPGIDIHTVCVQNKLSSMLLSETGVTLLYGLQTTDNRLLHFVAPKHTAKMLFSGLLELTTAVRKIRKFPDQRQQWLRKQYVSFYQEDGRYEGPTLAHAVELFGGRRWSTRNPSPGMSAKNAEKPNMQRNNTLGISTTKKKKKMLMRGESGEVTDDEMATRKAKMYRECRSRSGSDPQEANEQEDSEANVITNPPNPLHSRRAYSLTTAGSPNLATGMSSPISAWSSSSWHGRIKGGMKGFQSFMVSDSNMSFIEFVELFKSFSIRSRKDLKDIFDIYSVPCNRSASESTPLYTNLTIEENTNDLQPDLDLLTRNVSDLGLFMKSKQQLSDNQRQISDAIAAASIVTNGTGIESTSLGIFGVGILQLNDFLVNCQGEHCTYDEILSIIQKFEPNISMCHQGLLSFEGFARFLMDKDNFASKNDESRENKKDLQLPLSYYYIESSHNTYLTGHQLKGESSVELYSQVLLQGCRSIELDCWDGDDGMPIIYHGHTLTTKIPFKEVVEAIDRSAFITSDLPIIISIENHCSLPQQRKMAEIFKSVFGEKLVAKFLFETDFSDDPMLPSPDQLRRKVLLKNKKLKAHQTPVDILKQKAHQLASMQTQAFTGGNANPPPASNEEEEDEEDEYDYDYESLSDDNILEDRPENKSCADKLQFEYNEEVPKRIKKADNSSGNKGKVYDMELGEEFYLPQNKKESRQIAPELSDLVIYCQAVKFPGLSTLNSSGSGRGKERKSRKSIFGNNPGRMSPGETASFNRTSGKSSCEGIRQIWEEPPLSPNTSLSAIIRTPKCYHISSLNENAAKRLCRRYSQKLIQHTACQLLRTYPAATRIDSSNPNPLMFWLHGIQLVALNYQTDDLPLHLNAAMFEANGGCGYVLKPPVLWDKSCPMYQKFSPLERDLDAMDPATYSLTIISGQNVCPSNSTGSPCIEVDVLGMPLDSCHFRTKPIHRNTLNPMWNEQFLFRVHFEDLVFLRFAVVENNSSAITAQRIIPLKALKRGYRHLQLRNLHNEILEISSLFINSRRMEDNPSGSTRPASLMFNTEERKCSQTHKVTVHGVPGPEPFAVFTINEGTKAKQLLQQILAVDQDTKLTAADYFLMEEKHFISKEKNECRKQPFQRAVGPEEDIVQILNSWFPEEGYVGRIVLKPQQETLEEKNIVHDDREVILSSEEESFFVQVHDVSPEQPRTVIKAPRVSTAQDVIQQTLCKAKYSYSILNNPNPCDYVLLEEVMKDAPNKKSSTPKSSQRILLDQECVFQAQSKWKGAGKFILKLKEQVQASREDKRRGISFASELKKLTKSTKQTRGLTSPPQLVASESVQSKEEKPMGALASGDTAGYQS
# R. norvegicus PLCε PH-COOH variant (residues 837-2282): residues 837-2281 of Q99P84
# No constants are given. Whether binding was seen depends on the method and setting. Some binding calls cover weakened binding; strength is not graded here.
# B1: constitutively active and prenylated Homo sapiens Rap1A G12V, GTP-bound (natural protein, UniProt P62834 1-184, looked up)
# chain: MREYKLVVLGSVGVGKSALTVQFVQGIFVEKYDPTIEDSYRKQVEVDCQQCMLEILDTAGTEQFTAMRDLYMKNGQGFALVYSITAQSTFNDLQDLREQILRVKDTEDVPMILVGNKCDLEDERVVGKEQGQNLARQWCNCAFLESSAKSKINVNEIFYDLVRQINRKTPVEKKKPKKKSCLLL
# modifications: prenylated
# Experiments:
# [1] = target: R. norvegicus PLCε EF3-COOH variant (residues 1284-2282) (R. norvegicus) (UniProt Q99P84); experiment: SEC-SAXS; EF3-COOH alone at 2-3 mg/ml in S200 buffer, Superdex 200 Increase 10/300 GL in line with SAXS (BioCAT, APS); both purified
# [2] = target: R. norvegicus PLCε PH-COOH variant (residues 837-2282) (R. norvegicus) (UniProt Q99P84); experiment: SEC; 1:3 or 1:5 molar ratio of PLCε variant to Rap1A G12V with 0.5 mM CaCl2, on ice 30 min, then Superdex S200 in 20 mM HEPES pH 8, 50 mM NaCl, 2 mM DTT, 0.1 mM EDTA, 0.1 mM EGTA, 1 mM MgCl2, 0.5 mM CaCl2, 40 uM GTP; fractions identified by SDS-PAGE; both purified
# [3] = target: R. norvegicus PLCε EF3-COOH variant (residues 1284-2282) (R. norvegicus) (UniProt Q99P84); experiment: as above
# [4] = target: R. norvegicus PLCε PH-COOH variant (residues 837-2282) (R. norvegicus) (UniProt Q99P84); experiment: SEC-SAXS; isolated Rap1A G12V-PLCε variant complexes at 2-3 mg/ml in complex S200 buffer, Superdex 200 Increase 10/300 GL in line with SAXS (BioCAT, APS); both purified
# [5] = target: R. norvegicus PLCε EF3-COOH variant (residues 1284-2282) (R. norvegicus) (UniProt Q99P84); experiment: as above
Molecule,binding [1],binding [2],binding [3],binding [4],binding [5]
R. norvegicus PLCε EF3-COOH variant (residues 1284-2282) (from UniProt Q99P84 1284-2281) (domain or fragment),no binding (tested: 2–3 mg/ml),–,–,–,–
B1,–,binds,binds,binds,binds
